Structures can show the parent of a compound that is named as a salt. ± gives the standard deviation of the averaged measurements. The list shows a part of the results. The data scatter; read single values as rough.
Experiments:
hAMSC donor 1 [1] = experiment: Hoechst total cell count ratio vs vehicle control; higher = more cells (less toxicity)
hAMSC donor 2 [2] = experiment: as above
hAMSC donor 1 [3] = experiment: transgenic luciferase activity (RLU/mg protein) fold change vs vehicle control (ratio); higher = more transgene expression
hAMSC donor 2 [4] = experiment: as above
hAMSC donor 1 [5] = experiment: transfection efficiency (EGFP+ cells / Hoechst count) fold change vs vehicle control (ratio); hAMSC are human adipose-derived mesenchymal stem cells given an EGFP-luciferase plasmid by lipofection; higher = enhanced transfection
hAMSC donor 2 [6] = experiment: as above
[7] = priming compound concentration 0.2 µM
[8] = priming compound concentration 1.7 µM
[9] = priming compound concentration 13 µM

| SMILES | Hoechst total cell count ratio (hAMSC donor 1 [1]; [7]) | Hoechst total cell count ratio (hAMSC donor 1 [1]; [8]) | Hoechst total cell count ratio (hAMSC donor 1 [1]; [9]) | Hoechst total cell count ratio (hAMSC donor 2 [2]; [7]) | Hoechst total cell count ratio (hAMSC donor 2 [2]; [8]) | Hoechst total cell count ratio (hAMSC donor 2 [2]; [9]) | transgenic luciferase activity (hAMSC donor 1 [3]; [8]) | transgenic luciferase activity (hAMSC donor 1 [3]; [9]) | transgenic luciferase activity (hAMSC donor 2 [4]; [7]) | transgenic luciferase activity (hAMSC donor 2 [4]; [8]) | transgenic luciferase activity (hAMSC donor 2 [4]; [9]) | transfection efficiency (hAMSC donor 1 [5]; [7]) | transfection efficiency (hAMSC donor 1 [5]; [8]) | transfection efficiency (hAMSC donor 1 [5]; [9]) | transfection efficiency (hAMSC donor 2 [6]; [7]) | transfection efficiency (hAMSC donor 2 [6]; [8]) | transfection efficiency (hAMSC donor 2 [6]; [9]) | transgenic luciferase activity (hAMSC donor 1 [3]; [7]) |
| --- | --- | --- | --- | --- | --- | --- | --- | --- | --- | --- | --- | --- | --- | --- | --- | --- | --- | --- |
| CC(C)(C)NC(=O)[C@@H]1C[C@@H]2CCCC[C@@H]2CN1C[C@@H](O)[C@H](Cc1ccccc1)NC(=O)[C@H](CC(N)=O)NC(=O)c1ccc2ccccc2n1 [Saquinavir mesylate] | 1.39 ± 0.053 | 1.23 ± 0.079 | 1.32 ± 0.13 | 1.12 ± 0.12 | 1.34 ± 0.091 | 1.15 ± 0.19 | 0.818 ± 0.22 | 0.456 ± 0.37 | 0.549 ± 0.12 | 0.921 ± 0.11 | 1.01 ± 0.35 | 1.05 ± 0.29 | 1.32 ± 0.12 | 1.19 ± 0.083 | 0.881 ± 0.099 | 0.967 ± 0.051 | 1.12 ± 0.19 |  |
| CCCC(CCC)C(=O)O [Valproic acid] | 1.41 ± 0.31 | 1.12 ± 0.028 | 1.36 ± 0.17 | 1.25 ± 0.2 | 1.101 ± 0.0068 | 1.26 ± 0.18 | 1.81 ± 0.84 | 0.564 ± 0.18 | 0.734 ± 0.034 | 0.756 ± 0.26 | 0.599 ± 0.24 | 1.12 ± 0.37 | 1.46 ± 0.36 | 1.3 ± 0.51 | 0.743 ± 0.05 | 1.09 ± 0.19 | 0.967 ± 0.073 |  |
| CC[C@]1(O)C[C@@H]2CN(CCc3c([nH]c4ccccc34)[C@@](C(=O)OC)(c3cc4c(cc3OC)N(C)[C@H]3[C@@](O)(C(N)=O)[C@H](O)[C@]5(CC)C=CCN6CC[C@]43[C@@H]65)C2)C1 [Vindesine sulfate] | 0.484 ± 0.049 | 0.632 ± 0.13 | 0.583 ± 0.052 | 0.488 ± 0.083 | 0.548 ± 0.025 | 0.469 ± 0.049 | 0.337 ± 0.24 | 0.52 ± 0.41 | 0.826 ± 0.16 | 1.44 ± 0.13 | 0.761 ± 0.15 | 1.15 ± 0.7 | 1.23 ± 0.59 | 1.57 ± 0.84 | 1.07 ± 0.1 | 1.18 ± 0.22 | 1.48 ± 0.46 |  |
| Cc1cn([C@H]2C[C@H](N=[N+]=[N-])[C@@H](CO)O2)c(=O)[nH]c1=O [Zidovudine] | 1.41 ± 0.054 | 1.19 ± 0.062 | 1.5 ± 0.025 | 1.23 ± 0.094 | 1.13 ± 0.062 | 1.28 ± 0.21 | 0.307 ± 0.12 | 1.36 ± 0.67 | 1.02 ± 0.63 | 0.783 ± 0.13 | 0.738 ± 0.14 | 0.754 ± 0.14 | 1.11 ± 0.1 | 0.853 ± 0.23 | 0.997 ± 0.4 | 1.21 ± 0.11 | 1.03 ± 0.16 |  |
| COc1ccc(OC)c(C(O)CNC(=O)CN)c1 (centres undefined) [Midodrine hydrochloride] | 1.19 ± 0.12 | 1.09 ± 0.056 | 1.47 ± 0.15 | 1.22 ± 0.091 | 1.09 ± 0.021 | 1.58 ± 0.35 | 0.747 ± 0.23 | 0.291 ± 0.098 | 0.859 ± 0.044 | 0.48 ± 0.049 | 0.357 ± 0.15 | 0.926 ± 0.33 | 1.1 ± 0.14 | 0.951 ± 0.12 | 0.807 ± 0.069 | 1.13 ± 0.095 | 0.882 ± 0.18 |  |
| O=C(O[C@@H]1C[C@@H]2C[C@H]3C[C@H](C1)N2CC3=O)c1c[nH]c2ccccc12 [Dolasetron mesylate] | 1.11 ± 0.057 | 1.11 ± 0.14 | 1.29 ± 0.026 | 1.02 ± 0.087 | 1.11 ± 0.11 | 1.25 ± 0.13 | 1.32 ± 0.29 |  | 0.535 ± 0.35 | 0.894 ± 0.13 | 0.69 ± 0.1 | 1.4 ± 0.067 | 1.24 ± 0.29 | 1.02 ± 0.59 | 1 ± 0.27 | 1.22 ± 0.32 | 1.05 ± 0.19 | 0.664 ± 0.053 |
| CO/N=C(\C(=O)N[C@@H]1C(=O)N2C(C(=O)O)=C(COC(N)=O)CS[C@H]12)c1ccco1 [Cefuroxime] | 1.06 ± 0.093 | 1.3 ± 0.19 | 1.23 ± 0.077 | 1.38 ± 0.072 | 1.14 ± 0.033 | 1.39 ± 0.03 | 0.299 ± 0.019 | 1.23 ± 0.31 | 0.93 ± 0.13 | 1.04 ± 0.028 | 0.434 ± 0.08 | 0.597 ± 0.099 | 0.751 ± 0.38 | 0.707 ± 0.2 | 0.987 ± 0.034 | 1.13 ± 0.24 | 0.837 ± 0.067 |  |

Source: the supplement of paper PMC7238544
